Experimental data: the supplement of paper PMC6411743
± gives the standard deviation of the averaged measurements. The list shows a part of the results, in another mix than the full data.

The chains behind the UniProt entries cited, without tags or fusion partners. Where a name states a change or a piece, a line headed by the entry shows the natural chain unless it says otherwise.
UniProt O15446, whole entry: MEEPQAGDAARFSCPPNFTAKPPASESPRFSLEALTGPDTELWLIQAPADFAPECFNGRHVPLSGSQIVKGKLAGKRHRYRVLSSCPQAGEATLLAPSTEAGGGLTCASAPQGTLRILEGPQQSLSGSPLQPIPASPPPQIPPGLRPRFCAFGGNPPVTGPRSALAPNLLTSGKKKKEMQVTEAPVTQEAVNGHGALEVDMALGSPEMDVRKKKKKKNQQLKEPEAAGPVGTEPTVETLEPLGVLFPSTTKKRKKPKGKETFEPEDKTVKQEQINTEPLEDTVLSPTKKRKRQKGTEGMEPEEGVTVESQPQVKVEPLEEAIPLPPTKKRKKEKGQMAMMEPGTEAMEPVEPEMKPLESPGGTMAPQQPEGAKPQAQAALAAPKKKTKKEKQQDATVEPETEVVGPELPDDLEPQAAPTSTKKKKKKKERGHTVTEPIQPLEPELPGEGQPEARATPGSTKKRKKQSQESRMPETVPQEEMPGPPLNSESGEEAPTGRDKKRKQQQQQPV
UniProt Q9NX61: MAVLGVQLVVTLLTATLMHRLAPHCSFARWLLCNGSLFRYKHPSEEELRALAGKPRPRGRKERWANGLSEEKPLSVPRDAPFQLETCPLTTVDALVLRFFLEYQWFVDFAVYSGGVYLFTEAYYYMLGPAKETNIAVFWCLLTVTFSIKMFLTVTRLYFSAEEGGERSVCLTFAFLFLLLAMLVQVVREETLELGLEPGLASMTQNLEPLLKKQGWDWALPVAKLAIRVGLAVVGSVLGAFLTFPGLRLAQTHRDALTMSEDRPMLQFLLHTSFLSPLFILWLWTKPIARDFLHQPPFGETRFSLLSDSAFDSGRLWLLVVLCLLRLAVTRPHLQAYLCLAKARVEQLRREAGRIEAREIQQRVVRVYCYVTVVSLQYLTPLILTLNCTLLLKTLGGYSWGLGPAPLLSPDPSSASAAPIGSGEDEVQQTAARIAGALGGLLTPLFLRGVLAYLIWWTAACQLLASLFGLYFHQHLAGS
UniProt O43303: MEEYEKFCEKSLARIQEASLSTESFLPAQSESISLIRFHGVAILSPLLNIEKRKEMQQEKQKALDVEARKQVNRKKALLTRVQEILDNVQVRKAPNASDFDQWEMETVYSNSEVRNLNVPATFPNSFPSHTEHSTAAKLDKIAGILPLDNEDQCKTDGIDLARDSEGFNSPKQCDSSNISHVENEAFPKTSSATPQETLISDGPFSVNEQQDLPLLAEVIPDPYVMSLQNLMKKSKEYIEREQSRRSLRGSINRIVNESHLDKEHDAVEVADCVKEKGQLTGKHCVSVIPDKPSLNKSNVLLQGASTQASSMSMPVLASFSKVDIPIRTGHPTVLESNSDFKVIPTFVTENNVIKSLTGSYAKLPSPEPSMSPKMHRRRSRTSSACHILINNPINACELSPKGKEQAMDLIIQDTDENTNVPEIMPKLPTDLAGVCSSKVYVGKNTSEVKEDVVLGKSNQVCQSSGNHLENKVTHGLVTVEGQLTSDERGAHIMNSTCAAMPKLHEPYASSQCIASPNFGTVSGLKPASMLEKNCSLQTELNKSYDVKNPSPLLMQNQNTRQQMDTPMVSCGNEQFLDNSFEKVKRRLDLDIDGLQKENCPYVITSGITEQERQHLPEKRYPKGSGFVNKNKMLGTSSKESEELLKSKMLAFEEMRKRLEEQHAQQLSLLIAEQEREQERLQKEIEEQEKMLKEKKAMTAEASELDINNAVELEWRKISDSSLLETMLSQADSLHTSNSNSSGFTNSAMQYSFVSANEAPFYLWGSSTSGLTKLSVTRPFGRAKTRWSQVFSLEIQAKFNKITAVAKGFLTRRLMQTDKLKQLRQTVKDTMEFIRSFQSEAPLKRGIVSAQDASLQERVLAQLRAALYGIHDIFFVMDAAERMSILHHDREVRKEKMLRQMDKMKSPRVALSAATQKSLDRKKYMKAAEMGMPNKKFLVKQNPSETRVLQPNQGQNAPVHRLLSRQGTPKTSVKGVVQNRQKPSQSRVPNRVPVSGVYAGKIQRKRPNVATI
UniProt O15439: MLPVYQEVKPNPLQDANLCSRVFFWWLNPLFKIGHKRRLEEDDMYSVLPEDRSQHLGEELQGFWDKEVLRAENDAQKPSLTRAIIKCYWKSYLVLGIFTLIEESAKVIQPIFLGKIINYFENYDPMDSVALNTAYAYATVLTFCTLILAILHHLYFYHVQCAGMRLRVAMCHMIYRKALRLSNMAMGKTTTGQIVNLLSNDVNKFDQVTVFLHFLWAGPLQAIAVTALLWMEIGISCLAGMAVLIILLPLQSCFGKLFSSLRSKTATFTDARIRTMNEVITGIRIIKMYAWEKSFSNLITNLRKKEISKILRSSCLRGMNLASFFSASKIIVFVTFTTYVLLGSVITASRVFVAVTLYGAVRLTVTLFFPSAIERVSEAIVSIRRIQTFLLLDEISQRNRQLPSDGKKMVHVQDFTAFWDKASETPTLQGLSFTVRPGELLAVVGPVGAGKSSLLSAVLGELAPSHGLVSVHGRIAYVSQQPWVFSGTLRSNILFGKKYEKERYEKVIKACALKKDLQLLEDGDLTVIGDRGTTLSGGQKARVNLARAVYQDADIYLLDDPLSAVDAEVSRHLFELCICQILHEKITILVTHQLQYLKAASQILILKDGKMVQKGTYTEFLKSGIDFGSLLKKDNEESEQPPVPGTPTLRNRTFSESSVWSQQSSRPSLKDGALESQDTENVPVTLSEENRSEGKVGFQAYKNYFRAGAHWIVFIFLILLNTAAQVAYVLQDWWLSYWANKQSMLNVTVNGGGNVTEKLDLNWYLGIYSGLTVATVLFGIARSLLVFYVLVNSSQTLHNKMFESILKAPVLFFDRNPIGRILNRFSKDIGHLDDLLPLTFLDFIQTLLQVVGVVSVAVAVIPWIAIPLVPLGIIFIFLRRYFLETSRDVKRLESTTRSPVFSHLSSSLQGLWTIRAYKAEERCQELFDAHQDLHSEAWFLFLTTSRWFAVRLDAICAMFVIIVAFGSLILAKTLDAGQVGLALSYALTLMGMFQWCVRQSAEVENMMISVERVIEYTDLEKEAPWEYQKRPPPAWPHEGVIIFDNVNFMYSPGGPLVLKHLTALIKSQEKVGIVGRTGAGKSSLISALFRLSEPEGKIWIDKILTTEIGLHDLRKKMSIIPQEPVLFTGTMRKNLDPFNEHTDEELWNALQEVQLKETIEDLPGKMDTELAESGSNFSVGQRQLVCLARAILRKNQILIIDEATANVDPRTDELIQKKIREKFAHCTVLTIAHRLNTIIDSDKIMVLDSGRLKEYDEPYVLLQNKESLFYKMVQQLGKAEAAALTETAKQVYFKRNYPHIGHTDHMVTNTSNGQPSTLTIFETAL
UniProt O00462: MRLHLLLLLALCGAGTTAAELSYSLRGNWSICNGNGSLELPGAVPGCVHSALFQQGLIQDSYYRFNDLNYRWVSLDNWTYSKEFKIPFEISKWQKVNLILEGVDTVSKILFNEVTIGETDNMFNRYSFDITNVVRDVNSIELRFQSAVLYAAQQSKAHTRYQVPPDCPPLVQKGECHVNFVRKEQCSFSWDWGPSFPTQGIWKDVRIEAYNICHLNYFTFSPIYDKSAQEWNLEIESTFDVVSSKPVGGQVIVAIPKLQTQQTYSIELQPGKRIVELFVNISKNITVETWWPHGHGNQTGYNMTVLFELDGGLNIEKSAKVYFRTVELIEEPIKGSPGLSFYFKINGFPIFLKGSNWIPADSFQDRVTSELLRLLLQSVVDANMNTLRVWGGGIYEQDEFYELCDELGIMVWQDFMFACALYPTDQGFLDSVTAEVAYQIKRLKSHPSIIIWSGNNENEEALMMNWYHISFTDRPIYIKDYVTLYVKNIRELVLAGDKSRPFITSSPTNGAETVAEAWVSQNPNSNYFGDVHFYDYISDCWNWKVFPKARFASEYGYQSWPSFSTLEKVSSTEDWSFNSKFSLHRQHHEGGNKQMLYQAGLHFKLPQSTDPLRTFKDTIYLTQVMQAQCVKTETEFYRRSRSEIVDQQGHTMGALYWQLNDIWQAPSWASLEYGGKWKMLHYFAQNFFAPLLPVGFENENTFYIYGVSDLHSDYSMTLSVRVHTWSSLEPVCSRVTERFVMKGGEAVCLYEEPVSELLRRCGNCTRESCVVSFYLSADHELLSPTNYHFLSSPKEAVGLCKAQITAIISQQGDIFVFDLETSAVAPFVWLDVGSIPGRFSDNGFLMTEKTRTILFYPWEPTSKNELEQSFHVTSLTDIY
UniProt Q8N0Y2: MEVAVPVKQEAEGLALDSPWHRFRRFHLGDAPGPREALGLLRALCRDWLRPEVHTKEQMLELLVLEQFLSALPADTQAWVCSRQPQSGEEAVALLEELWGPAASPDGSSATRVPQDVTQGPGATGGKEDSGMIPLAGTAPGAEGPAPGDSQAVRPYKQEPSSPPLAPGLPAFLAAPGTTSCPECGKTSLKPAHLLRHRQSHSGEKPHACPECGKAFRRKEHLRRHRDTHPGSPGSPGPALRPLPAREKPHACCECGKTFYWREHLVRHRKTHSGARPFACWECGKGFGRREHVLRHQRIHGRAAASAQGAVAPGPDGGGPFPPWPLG
UniProt O43736: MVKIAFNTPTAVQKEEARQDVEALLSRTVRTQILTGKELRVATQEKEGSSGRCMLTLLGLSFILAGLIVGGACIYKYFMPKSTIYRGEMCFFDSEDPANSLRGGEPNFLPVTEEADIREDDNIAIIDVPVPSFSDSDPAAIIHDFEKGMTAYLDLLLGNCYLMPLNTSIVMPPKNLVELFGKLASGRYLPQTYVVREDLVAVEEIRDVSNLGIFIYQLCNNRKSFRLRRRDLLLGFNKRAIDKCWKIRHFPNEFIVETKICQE
UniProt O14656: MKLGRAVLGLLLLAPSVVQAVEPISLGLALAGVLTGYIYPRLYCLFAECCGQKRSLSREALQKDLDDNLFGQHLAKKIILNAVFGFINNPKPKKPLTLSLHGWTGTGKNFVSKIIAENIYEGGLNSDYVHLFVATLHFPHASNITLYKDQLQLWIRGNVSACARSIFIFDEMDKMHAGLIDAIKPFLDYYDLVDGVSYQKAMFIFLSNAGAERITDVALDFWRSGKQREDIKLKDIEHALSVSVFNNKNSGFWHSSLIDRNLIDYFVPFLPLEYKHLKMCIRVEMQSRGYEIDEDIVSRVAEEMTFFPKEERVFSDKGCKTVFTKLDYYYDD
UniProt O00505, whole entry: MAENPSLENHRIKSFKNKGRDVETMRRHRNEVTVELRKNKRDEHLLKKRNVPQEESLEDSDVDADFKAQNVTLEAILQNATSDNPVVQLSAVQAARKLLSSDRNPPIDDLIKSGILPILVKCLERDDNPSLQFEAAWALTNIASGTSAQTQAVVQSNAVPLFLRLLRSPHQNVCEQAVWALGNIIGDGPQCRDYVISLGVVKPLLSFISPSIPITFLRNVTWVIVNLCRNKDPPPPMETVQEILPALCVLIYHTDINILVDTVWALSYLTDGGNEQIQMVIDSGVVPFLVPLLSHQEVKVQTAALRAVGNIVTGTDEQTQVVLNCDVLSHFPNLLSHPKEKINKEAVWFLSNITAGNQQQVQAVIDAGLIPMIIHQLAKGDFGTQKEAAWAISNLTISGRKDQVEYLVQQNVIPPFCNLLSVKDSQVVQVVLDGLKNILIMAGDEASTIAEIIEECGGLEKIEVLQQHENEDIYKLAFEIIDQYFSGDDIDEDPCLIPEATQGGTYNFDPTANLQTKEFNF
UniProt O14744, whole entry: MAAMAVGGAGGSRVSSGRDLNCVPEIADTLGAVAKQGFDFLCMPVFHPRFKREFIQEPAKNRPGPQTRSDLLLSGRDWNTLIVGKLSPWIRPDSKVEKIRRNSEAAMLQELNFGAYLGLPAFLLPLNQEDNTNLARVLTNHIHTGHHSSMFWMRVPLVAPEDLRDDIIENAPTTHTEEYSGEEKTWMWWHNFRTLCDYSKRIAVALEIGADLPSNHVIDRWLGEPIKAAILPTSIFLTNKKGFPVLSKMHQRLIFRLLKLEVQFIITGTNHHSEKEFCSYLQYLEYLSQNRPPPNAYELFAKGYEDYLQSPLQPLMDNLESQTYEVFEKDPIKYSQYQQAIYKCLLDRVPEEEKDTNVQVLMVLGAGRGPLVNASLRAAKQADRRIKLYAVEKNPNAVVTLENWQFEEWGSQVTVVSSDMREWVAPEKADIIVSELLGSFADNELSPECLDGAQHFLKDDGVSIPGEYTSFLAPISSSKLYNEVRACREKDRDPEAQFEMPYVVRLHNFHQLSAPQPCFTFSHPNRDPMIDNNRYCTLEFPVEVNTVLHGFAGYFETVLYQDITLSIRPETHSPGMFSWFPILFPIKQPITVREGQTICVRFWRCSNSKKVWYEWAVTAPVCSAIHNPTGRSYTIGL
UniProt Q16740, whole entry: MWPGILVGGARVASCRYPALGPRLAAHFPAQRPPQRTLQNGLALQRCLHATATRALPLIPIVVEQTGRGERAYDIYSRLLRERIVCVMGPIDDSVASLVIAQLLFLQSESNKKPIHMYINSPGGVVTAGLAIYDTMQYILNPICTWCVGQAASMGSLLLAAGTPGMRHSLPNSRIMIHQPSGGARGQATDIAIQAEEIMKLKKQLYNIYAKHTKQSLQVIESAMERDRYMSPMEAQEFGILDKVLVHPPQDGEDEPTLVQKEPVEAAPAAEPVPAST

Compound: Nc1ncnc2c1ncn2[C@@H]1O[C@H](COP(=O)(O)OP(=O)(O)NP(=O)(O)O)[C@@H](O)[C@H]1O [adenylyl imidodiphosphate]
Assay: NP40-soluble protein abundance relative to vehicle (solubility fold change) (ratio); higher = more soluble protein in presence of AMP-PNP
How it was run: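 Jurkat crude lysate (Dounce-homogenised) was treated with eight concentrations from 0.1 to 10 mM for 10 min at room temperature, then 3 min at 37 °C. It was solubilised with 0.8% NP40 and benzonase (60 min, 4 °C) and ultracentrifuged, and the supernatant was TMT-labelled for LC-MS/MS. Intensities were vsn-normalised, and the value is the fold change against the NP40-processed vehicle per replicate, from three independent experiments.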

Target	NP40-soluble protein abundance (concentration: 1mM)	NP40-soluble protein abundance (concentration: 2mM)	NP40-soluble protein abundance (concentration: 4mM)	NP40-soluble protein abundance (concentration: 6mM)	NP40-soluble protein abundance (concentration: 8mM)	NP40-soluble protein abundance (concentration: 10mM)
STRN (UniProt O43815)	1.01 ± 0.05	1.03 ± 0.0072	1.03 ± 0.026	1.03 ± 0.036	1.02 ± 0.034	1.04 ± 0.047
K7ELQ9 and related entries (UniProt Q6UW68)	0.998 ± 0.016	1.02 ± 0.031	0.996 ± 0.03	0.9955 ± 0.0067	0.996 ± 0.015	1.01 ± 0.028
UniProt O43164 and related entries	1.01 ± 0.034	1.07 ± 0.054	1.04 ± 0.034	0.987 ± 0.031	0.965 ± 0.04	0.999 ± 0.025
TRIM38 (UniProt O00635)	1.08 ± 0.022	1.08 ± 0.06	1.07 ± 0.04	1.04 ± 0.019	1.03 ± 0.02	1.066 ± 0.01
RRP9 (UniProt O43818)	1.031 ± 0.01	1.04 ± 0.019	1.07 ± 0.059	1.12 ± 0.02	1.16 ± 0.035	1.26 ± 0.043
DAPK3 (UniProt O43293)	0.987 ± 0.012	0.9883 ± 0.006	0.982 ± 0.026	1.01 ± 0.021	0.999 ± 0.018	1 ± 0.025
K7EJB9 and related entries (UniProt P27797)	1.04 ± 0.025	1.1 ± 0.11	1.01 ± 0.053	1.02 ± 0.011	0.978 ± 0.029	1.02 ± 0.079
UniProt O43747 and related entries	0.934 ± 0.056	0.863 ± 0.03	0.932 ± 0.056	1 ± 0.12	1.01 ± 0.1	0.995 ± 0.072
UniProt O15446 and related entries	1.03 ± 0.018	1.12 ± 0.1	1.11 ± 0.03	1.12 ± 0.038	1.14 ± 0.055	1.17 ± 0.045
K7EPA3 and related entries (UniProt Q9NX61)	0.981 ± 0.025	0.931 ± 0.069	0.9135 ± 0.0037	0.952 ± 0.032	0.941 ± 0.029	0.922 ± 0.035
MPHOSPH10 (UniProt O00566)	0.974 ± 0.027	1.07 ± 0.14	0.997 ± 0.089	1.12 ± 0.096	1.06 ± 0.086	1.11 ± 0.13
UniProt O43303 and related entries	0.988 ± 0.029	1.016 ± 0.0033	1.01 ± 0.029	0.966 ± 0.018	0.943 ± 0.014	0.98 ± 0.024
SCAMP1 (UniProt O15126)	1.03 ± 0.043	1.09 ± 0.044	1.03 ± 0.059	1.01 ± 0.031	0.992 ± 0.029	1.01 ± 0.073
UniProt O15439 and related entries	0.976 ± 0.074	0.994 ± 0.053	1 ± 0.072	0.981 ± 0.034	0.963 ± 0.02	0.974 ± 0.032
CLIC1 (UniProt O00299)	1.01 ± 0.015	1.05 ± 0.099	1.02 ± 0.066	1.1 ± 0.091	1.03 ± 0.15	1.12 ± 0.14
UniProt O14776 and related entries	1.01 ± 0.042	1.05 ± 0.061	1.03 ± 0.045	1.1 ± 0.028	1.08 ± 0.038	1.11 ± 0.051
UniProt O43683 and related entries	0.984 ± 0.015	0.978 ± 0.01	0.989 ± 0.015	0.953 ± 0.018	0.934 ± 0.037	0.955 ± 0.024
K7EJL1 and related entries (UniProt Q9BXS5)	0.937 ± 0.026	0.854 ± 0.051	0.905 ± 0.015	0.979 ± 0.079	0.996 ± 0.027	0.938 ± 0.043
TXNDC9 (UniProt O14530)	0.959 ± 0.097	0.971 ± 0.083	0.935 ± 0.093	0.978 ± 0.12	0.93 ± 0.096	0.936 ± 0.18

In another format: results already given.
Target,NP40-soluble protein abundance (concentration: 1mM),NP40-soluble protein abundance (concentration: 2mM),NP40-soluble protein abundance (concentration: 4mM),NP40-soluble protein abundance (concentration: 6mM),NP40-soluble protein abundance (concentration: 8mM),NP40-soluble protein abundance (concentration: 10mM)
CLIC1 (UniProt O00299),1.01 ± 0.015,1.05 ± 0.099,1.02 ± 0.066,1.1 ± 0.091,1.03 ± 0.15,1.12 ± 0.14
UniProt O14776 and related entries,1.01 ± 0.042,1.05 ± 0.061,1.03 ± 0.045,1.1 ± 0.028,1.08 ± 0.038,1.11 ± 0.051
UniProt O43683 and related entries,0.984 ± 0.015,0.978 ± 0.01,0.989 ± 0.015,0.953 ± 0.018,0.934 ± 0.037,0.955 ± 0.024

Following part.

Target	NP40-soluble protein abundance (concentration: 1mM)	NP40-soluble protein abundance (concentration: 2mM)	NP40-soluble protein abundance (concentration: 4mM)	NP40-soluble protein abundance (concentration: 6mM)	NP40-soluble protein abundance (concentration: 8mM)	NP40-soluble protein abundance (concentration: 10mM)
UniProt O14965 and related entries	1.048 ± 0.0065	1.07 ± 0.037	1.05 ± 0.024	1.05 ± 0.017	1.06 ± 0.018	1.08 ± 0.062
K7ESP4 and related entries (UniProt Q8WVC6)	1.05 ± 0.019	1.04 ± 0.079	1.07 ± 0.026	1.08 ± 0.012	1.06 ± 0.04	1.1 ± 0.04
UniProt O00462 and related entries	1.02 ± 0.037	1.02 ± 0.026	1.02 ± 0.026	1 ± 0.032	1.01 ± 0.018	1.02 ± 0.033
K7EJ91 and related entries (UniProt Q8N0Y2)	1.01 ± 0.014	1.021 ± 0.0019	1.03 ± 0.017	1.02 ± 0.03	0.9948 ± 0.0077	1.03 ± 0.018
HTATSF1 (UniProt O43719)	1.03 ± 0.026	1.06 ± 0.061	1.02 ± 0.023	1.08 ± 0.022	1.026 ± 0.0044	1.068 ± 0.0061
UniProt O15258 and related entries	0.995 ± 0.073	0.972 ± 0.022	1.03 ± 0.051	1.04 ± 0.12	1.12 ± 0.082	1.04 ± 0.05
UniProt O43736 and related entries	1.03 ± 0.072	0.998 ± 0.013	0.967 ± 0.044	1 ± 0.017	0.979 ± 0.071	1.03 ± 0.062
UniProt O00506	1.05 ± 0.02	1.07 ± 0.01	1.08 ± 0.032	1.01 ± 0.04	1.011 ± 0.0097	1.01 ± 0.028
M0R0F0 and related entries (UniProt P46782)	0.952 ± 0.035	0.917 ± 0.048	0.91 ± 0.13	0.925 ± 0.058	0.893 ± 0.088	0.928 ± 0.11
PPM1G (UniProt O15355)	1.03 ± 0.021	1.11 ± 0.1	1 ± 0.04	0.996 ± 0.026	0.957 ± 0.024	0.984 ± 0.053
UniProt O14647 and related entries	1.08 ± 0.011	1.12 ± 0.025	1.17 ± 0.04	1.23 ± 0.048	1.26 ± 0.051	1.32 ± 0.073
PSMD11 (UniProt O00231)	0.925 ± 0.025	0.891 ± 0.045	0.881 ± 0.048	0.866 ± 0.092	0.867 ± 0.084	0.845 ± 0.087
TOR1A (UniProt O14656)	1 ± 0.051	0.97 ± 0.034	1.03 ± 0.059	1.07 ± 0.11	1.11 ± 0.087	1.09 ± 0.086
M0QWZ7 and related entries (UniProt Q9NP81)	1.01 ± 0.018	0.982 ± 0.029	0.996 ± 0.025	0.966 ± 0.013	1.016 ± 0.0045	0.983 ± 0.015
KPNA3 (UniProt O00505)	1.04 ± 0.014	1.03 ± 0.025	1.02 ± 0.02	0.976 ± 0.013	0.988 ± 0.019	0.969 ± 0.047
UniProt O00182 and related entries	0.988 ± 0.029	0.965 ± 0.028	0.989 ± 0.038	0.988 ± 0.011	1.03 ± 0.023	0.994 ± 0.019
UniProt O00221 and related entries	1.044 ± 0.01	1.07 ± 0.03	1.05 ± 0.049	0.999 ± 0.014	1.01 ± 0.022	1.02 ± 0.045
SUPT5H (UniProt O00267)	0.967 ± 0.02	0.969 ± 0.082	0.998 ± 0.015	1.05 ± 0.046	1.06 ± 0.046	1.05 ± 0.033
SCAMP2 (UniProt O15127)	1 ± 0.059	1 ± 0.1	0.987 ± 0.057	1.02 ± 0.02	0.982 ± 0.069	1 ± 0.036

Target	NP40-soluble protein abundance (concentration: 1mM)	NP40-soluble protein abundance (concentration: 2mM)	NP40-soluble protein abundance (concentration: 4mM)	NP40-soluble protein abundance (concentration: 6mM)	NP40-soluble protein abundance (concentration: 8mM)	NP40-soluble protein abundance (concentration: 10mM)
UniProt O00442	1.01 ± 0.025	0.998 ± 0.094	1.02 ± 0.05	1 ± 0.028	1.04 ± 0.025	1 ± 0.042
K7EM18 and related entries (UniProt P41567)	1.02 ± 0.035	1.07 ± 0.048	1.08 ± 0.052	1.11 ± 0.015	1.16 ± 0.037	1.2 ± 0.064
K7EQ37 and related entries (UniProt Q70J99)	0.979 ± 0.012	0.97 ± 0.036	1.01 ± 0.027	1.01 ± 0.036	1.02 ± 0.044	1.03 ± 0.046
UniProt O15020 and related entries	1.02 ± 0.019	1.04 ± 0.046	1.03 ± 0.023	1.01 ± 0.032	0.981 ± 0.029	1.02 ± 0.012
CLGN (UniProt O14967)	1.03 ± 0.06	1.03 ± 0.082	1 ± 0.06	0.987 ± 0.051	0.994 ± 0.049	0.993 ± 0.07
UniProt O43251-6|O43251-8	0.989 ± 0.032	0.974 ± 0.039	0.984 ± 0.018	0.98 ± 0.015	0.972 ± 0.011	0.973 ± 0.032
K7EP59 and related entries (UniProt Q15831)	1.0443 ± 0.00038	0.999 ± 0.029	1.04 ± 0.033	1.01 ± 0.044	1.015 ± 0.0066	1.03 ± 0.028
PSMD9 (UniProt O00233)	1.01 ± 0.034	1.06 ± 0.033	0.988 ± 0.062	0.947 ± 0.021	0.959 ± 0.034	0.92 ± 0.053
UniProt O43488 and related entries	1.03 ± 0.036	0.993 ± 0.034	1.04 ± 0.068	1.03 ± 0.054	1.06 ± 0.041	1.02 ± 0.044
UBFD1 (UniProt O14562)	1.007 ± 0.0026	1.05 ± 0.065	1 ± 0.05	1.02 ± 0.026	0.989 ± 0.042	0.998 ± 0.072
VWA5A (UniProt O00534)	0.987 ± 0.021	0.99 ± 0.013	1.01 ± 0.029	0.9811 ± 0.0053	0.9823 ± 0.0079	0.999 ± 0.03
PMM2 (UniProt O15305)	1.02 ± 0.027	0.98 ± 0.078	0.981 ± 0.041	0.972 ± 0.029	0.961 ± 0.026	0.948 ± 0.072
PSMD12 (UniProt O00232)	0.924 ± 0.026	0.894 ± 0.04	0.932 ± 0.088	0.985 ± 0.059	0.986 ± 0.076	1.01 ± 0.13
PRMT5 (UniProt O14744)	0.943 ± 0.022	0.875 ± 0.11	0.903 ± 0.042	0.878 ± 0.048	0.904 ± 0.055	0.858 ± 0.075
K7ELC7 and related entries (UniProt P61353)	1.02 ± 0.033	0.979 ± 0.044	0.966 ± 0.11	0.924 ± 0.086	0.907 ± 0.094	0.953 ± 0.14
UniProt O15391	1.1 ± 0.025	1.1 ± 0.018	1.09 ± 0.033	1.06 ± 0.013	1.1 ± 0.066	1.08 ± 0.075
M0R208 and related entries (UniProt Q16740)	1.04 ± 0.02	1.09 ± 0.057	1.04 ± 0.015	0.98 ± 0.018	0.973 ± 0.034	0.985 ± 0.017
K7ENF0 and related entries (UniProt O43776)	0.972 ± 0.039	0.956 ± 0.061	0.949 ± 0.012	0.959 ± 0.053	0.949 ± 0.02	0.924 ± 0.044
